Assay results reported in article PMC9144902, “Metal(II) Complexes of the Fluoroquinolone Fleroxacin: Synthesis, Characterization and Biological Profile” (Pharmaceutics, 2022).

What was measured:
[1] = test system: calf-thymus DNA (CT DNA); experiment: DNA-binding study by UV–vis absorption spectroscopy; conditions: + hyperchromism / − hypochromism
[2] = test system: CT DNA; experiment: Study of the DNA-interaction by cyclic voltammetry; type: binding, calf; conditions: shift upon CT DNA
Protocol: Cyclic voltammetry was used to study the interaction of the complexes with CT DNA. An intercalative interaction will induce a positive shift for the electrochemical potential(s) of metal oxidation/reduction, whereas, in the case of electrostatic interaction, a negative shift in the potential(s) may occur. The cyclic voltammograms of the complexes in a 1:2 DMSO:buffer solution (0.33 mM) were recorded in the absence and presence of the CT DNA solution (Figure S13). The predominant electrochemical feature for all complexes is a positive shift in the potential in the presence of CT DNA (ΔEpc/a = (–30)–(+127) mV). Consequently, the intercalative nature of the interaction of the complexes with DNA can be inferred from the presented data.
In order to evaluate further the redox behavior of the complexes, the corresponding equilibrium constants were calculated by determining the ratio Kr/Kox in accordance to Equation (S6), where Kox and Kr are the DNA-binding constants for the oxidized and reduced form, respectively, of the metal ions. For all complexes, the Kr/Kox ratio is close to or above 1 (Table 7), showing the selective binding of DNA to the […] form of the complexes. […]
S3.3 Study of the DNA –interaction by cyclic vol ta mmetry
Cyclic voltammetr y can be also used in order to calculate the corresponding equilibrium constant for the redox process. The ratio of the DNA–binding constants for the reduced (K r) and oxidized forms (Kox) of t he complex es (Kr/Kox) w as calculat ed according t o eq. S6:
Δ = = 0.059 × lo gEE E K oxoo o (eq. S6) […]
where Eo and Eo are the formal potentials of M(II)/M(I) redox couple in the fully bound and […]
free complexes, respectivel y. Kox and Kr are the binding constants for the binding of the oxidized and reduced species to DNA, respectivel y [S8] . […]

| SMILES | Band (ΔA/A0, Δλ): UV–vis band λmax, percentage of hyper-/hypochromism, blue/red shift upon addition of DNA [1] | ΔEpa = Epa(b) − Epa(f) [2] | ΔEpc = Epc(b) − Epc(f) [2] |
| --- | --- | --- | --- |
| CN1CCN(c2c(F)cc3c(=O)c(C(=O)[O-])cn(CCF)c3c2F)CC1.CN1CCN(c2c(F)cc3c(=O)c(C(=O)[O-])cn(CCF)c3c2F)CC1.[Ni+2].c1ccc(Nc2ccccn2)nc1 [complex 18, [Ni(flrx)2(bipyam)]] | 290 (−10, −5); 323 (−6, −3) nm (%, nm) | +11 mV | +6 mV |
| CN1CCN(c2c(F)cc3c(=O)c(C(=O)[O-])cn(CCF)c3c2F)CC1.CN1CCN(c2c(F)cc3c(=O)c(C(=O)[O-])cn(CCF)c3c2F)CC1.[Co+2].c1ccc(Nc2ccccn2)nc1 [complex 16, [Co(flrx)2(bipyam)]] | 287 (−5, −3); 323 (−6, −2) nm (%, nm) | +21 mV | −12 mV |
| CN1CCN(c2c(F)cc3c(=O)c(C(=O)[O-])cn(CCF)c3c2F)CC1.CN1CCN(c2c(F)cc3c(=O)c(C(=O)[O-])cn(CCF)c3c2F)CC1.[Mn+2].c1ccc(Nc2ccccn2)nc1 [complex 10, [Mn(flrx)2(bipyam)]] | 271 (+3, +1); 317 (−5, −1) nm (%, nm) | −13 mV | +11 mV |
| CN1CCN(c2c(F)cc3c(=O)c(C(=O)[O-])cn(CCF)c3c2F)CC1.[Cl-].[Cu+2].c1ccc(-c2ccccn2)nc1 [complex 6, [Cu(flrx)(bipy)Cl]] | 294 (−21, −8); 314 (−38,−4); 332 (−11, −9) nm (%, nm) | +127 mV | −30 mV |
| CN1CCN(c2c(F)cc3c(=O)c(C(=O)[O-])cn(CCF)c3c2F)CC1.CN1CCN(c2c(F)cc3c(=O)c(C(=O)[O-])cn(CCF)c3c2F)CC1.[Mn+2].c1ccc(-c2ccccn2)nc1 [complex 9, [Mn(flrx)2(bipy)]] | 286 (+4, −1); 334 (−11, −10) nm (%, nm) | −20 mV | +17 mV |
| CN1CCN(c2c(F)cc3c(=O)c(C(=O)[O-])cn(CCF)c3c2F)CC1.CN1CCN(c2c(F)cc3c(=O)c(C(=O)[O-])cn(CCF)c3c2F)CC1.CO.CO.[Co+2] [complex 4, [Co(flrx)2(MeOH)2]] | 289 (−8, −4); 330 (−7, −6) nm (%, nm) | +28 mV | −11 mV |
| CN1CCN(c2c(F)cc3c(=O)c(C(=O)[O-])cn(CCF)c3c2F)CC1.CN1CCN(c2c(F)cc3c(=O)c(C(=O)[O-])cn(CCF)c3c2F)CC1.O.O.[Mn+2] [complex 2, [Mn(flrx)2(H2O)2]] | 291 (−22, −6); 322 (−2, +4) nm (%, nm) | −11 mV | +6 mV |
| CN1CCN(c2c(F)cc3c(=O)c(C(=O)[O-])cn(CCF)c3c2F)CC1.CN1CCN(c2c(F)cc3c(=O)c(C(=O)[O-])cn(CCF)c3c2F)CC1.[Co+2].c1cnc2c(c1)ccc1cccnc12 [complex 17, [Co(flrx)2(phen)]] | 286.6 (−2,− 3); 333 (0, −9) nm (%, nm) | +5 mV | +6 mV |
| CN1CCN(c2c(F)cc3c(=O)c(C(=O)[O-])cn(CCF)c3c2F)CC1.CN1CCN(c2c(F)cc3c(=O)c(C(=O)[O-])cn(CCF)c3c2F)CC1.[Zn+2].c1ccc(Nc2ccccn2)nc1 [complex 13, [Zn(flrx)2(bipyam)]] | 291.2 (−17, −7); 322 (−5, −1) nm (%, nm) | – | – |
| CN1CCN(c2c(F)cc3c(=O)c(C(=O)[O-])cn(CCF)c3c2F)CC1.CN1CCN(c2c(F)cc3c(=O)c(C(=O)[O-])cn(CCF)c3c2F)CC1.[Zn+2].c1ccc(-c2ccccn2)nc1 [complex 12, [Zn(flrx)2(bipy)]] | 290 (−15, −4); 332 (−7, −6) nm (%, nm) | – | – |
| CN1CCN(c2c(F)cc3c(=O)c(C(=O)[O-])cn(CCF)c3c2F)CC1.CN1CCN(c2c(F)cc3c(=O)c(C(=O)[O-])cn(CCF)c3c2F)CC1.CO.CO.[Ni+2] [complex 5, [Ni(flrx)2(MeOH)2]] | 289 (−8, −3); 336 (−21, −10) nm (%, nm) | −6 mV | +5 mV |
| CN1CCN(c2c(F)cc3c(=O)c(C(=O)[O-])cn(CCF)c3c2F)CC1.CN1CCN(c2c(F)cc3c(=O)c(C(=O)[O-])cn(CCF)c3c2F)CC1.[Mn+2].c1cnc2c(c1)ccc1cccnc12 [complex 11, [Mn(flrx)2(phen)]] | 288 (−7, −4); 331 (−8, −6) nm (%, nm) | +2 mV | +6 mV |
| CN1CCN(c2c(F)cc3c(=O)c(C(=O)[O-])cn(CCF)c3c2F)CC1.CN1CCN(c2c(F)cc3c(=O)c(C(=O)[O-])cn(CCF)c3c2F)CC1.CO.CO.[Zn+2] [complex 3, [Zn(flrx)2(MeOH)2]] | 334 (−17, −1) nm (%, nm) | – | – |
| CN1CCN(c2c(F)cc3c(=O)c(C(=O)[O-])cn(CCF)c3c2F)CC1.CN1CCN(c2c(F)cc3c(=O)c(C(=O)[O-])cn(CCF)c3c2F)CC1.[Ni+2].c1cnc2c(c1)ccc1cccnc12 [complex 19, [Ni(flrx)2(phen)]] | 288.4 (−7, −4); 333 (−15, −8) nm (%, nm) | +29 mV | −12 mV |
| CN1CCN(c2c(F)cc3c(=O)c(C(=O)[O-])cn(CCF)c3c2F)CC1.CN1CCN(c2c(F)cc3c(=O)c(C(=O)[O-])cn(CCF)c3c2F)CC1.[Cu+2] [complex 1, [Cu(flrx)2]] | 294 (−15, −7); 335 (−24, −10) nm (%, nm) | +42 mV | −10 mV |
| CN1CCN(c2c(F)cc3c(=O)c(C(=O)[O-])cn(CCF)c3c2F)CC1.CN1CCN(c2c(F)cc3c(=O)c(C(=O)[O-])cn(CCF)c3c2F)CC1.[Zn+2].c1cnc2c(c1)ccc1cccnc12 [complex 14, [Zn(flrx)2(phen)]] | 288 (−1, −1); 332 (−10, −7) nm (%, nm) | – | – |
| CN1CCN(c2c(F)cc3c(=O)c(C(=O)[O-])cn(CCF)c3c2F)CC1.CN1CCN(c2c(F)cc3c(=O)c(C(=O)[O-])cn(CCF)c3c2F)CC1.[Co+2].c1ccc(-c2ccccn2)nc1 [complex 15, [Co(flrx)2(bipy)]] | 288 (−3, −3); 331 (−8, −7) nm (%, nm) | −8 mV | +6 mV |
| CN1CCN(c2c(F)cc3c(=O)c(C(=O)[O-])cn(CCF)c3c2F)CC1.[Cl-].[Cu+2].c1ccc(Nc2ccccn2)nc1 [complex 7, [Cu(flrx)(bipyam)Cl]] | 294 (−18, −12); 316 (−8, 0) nm (%, nm) | +126 mV | +19 mV |
| CN1CCN(c2c(F)cc3c(=O)c(C(=O)[O-])cn(CCF)c3c2F)CC1.[Cl-].[Cu+2].c1cnc2c(c1)ccc1cccnc12 [complex 8, [Cu(flrx)(phen)Cl]] | 293 (−31, −20); 326 (+1, −2) nm (%, nm) | +77 mV | +5 mV |
